Results published in PubChem BioAssay AID624297 (National Center for Advancing Translational Sciences (NCATS), 2012).
The campaign covered roughly 340,000 compounds. About 6,200 (1.8%) were called active. Inconclusive results, whose numbers are uncertain, are shown with a selection of clear calls. The call rests on the fitted dose curve; in most records, active means well fitted activation curve with a large enough effect; inconclusive means small, poorly fitted or top-dose-only effect; inactive means no such curve, though single readings can be large or run the other way. Where the call is inconclusive, the potency comes from a doubtful curve fit.

Assay: A quantitative high throughput screen for small molecules that induce DNA re-replication in SW480 colon adenocarcinoma cells. Further: nearly all actives have a fitted effect of over 55% in size. On re-replication activation: % of control where 0% means no effect.
Settings: Hoechst DNA content imaging, 48 h; re-replication activation: at 46.1 µM (top of the series) unless noted
Method in brief: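 Quantitative HTS format with DMSO vehicle controls; 48 hr drug incubation at 37 C, then 40 min Hoechst staining and scanning imager measurement at 405 nm excitation.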
Potency means the concentration at half of the fitted maximal effect.

SMILES | Potency | re-replication activation
CCCn1cc(S(=O)(=O)c2ccc(Cl)cc2)c(=O)c2cc(OC)ccc21 | inconclusive: 29.1 µM [activator, single point] | –
Cc1ccc(C(=O)N(CC(=O)NC2CCCC2)Cc2cccs2)s1 | inactive | –
Cc1ccc2c(c1)c1c(n2CC(O)Cn2nc(C)c(Br)c2C)C(=O)CCC1 (stereo unspecified) | inactive | –
CC(=O)/C=C/c1ccc2ccccc2n1 | active: 9.2 µM | –
COc1ccc2c(c1)c(/C=N/Nc1nc3ccccc3[nH]1)c(C)n2C | inconclusive: 29.1 µM [activator, single point] | –
CCOc1c2ccc(C(=O)NCc3ccccc3OC)cc2nn1CC | inconclusive: 0.461 µM [activator, full curve, poor fit] | –
COc1ccc(OC)c(S(=O)(=O)N/N=C\c2cn(CC(N)=O)c3ccccc23)c1 | inconclusive: 18.4 µM [activator, single point] | –
CCOc1ccc(NC(=O)c2ccc(Cn3nc(C)cc3C)o2)cc1 | inactive | –
Cc1cc(NC(=O)CCCC(=O)NCc2ccccc2)no1 | inconclusive: 0.116 µM [activator, full curve, poor fit] | –
CC(C)CCOc1ccc(-c2c(=O)n(OCc3ccc([N+](=O)[O-])cc3)c3ccccc3[n+]2[O-])cc1 | inconclusive: 9.2 µM [activator, single point] | –
N#CC1=C(N)NC(SCc2ccccc2)=C(C#N)C12CCCC2 | inconclusive: 18.4 µM [activator, partial curve, poor fit] | –
Cc1ccc(S(=O)(=O)Nc2cc(C(=O)NCCN(C)C)ccc2N2CCCCC2)cc1 | inconclusive: 29.1 µM [activator, single point] | –
CCCc1nc2ccccc2c(C(=O)OC(C)C(=O)NCc2ccc3c(c2)OCO3)c1CC (stereo unspecified) | inconclusive: 18.4 µM [activator, partial curve, poor fit] | –
NNC(=O)c1nc(-c2ccccc2)cc(-c2ccccc2)n1 | inactive | –
Nc1nnnn1/N=C/C(Br)=C/c1ccccc1 | active: 2.82 µM | –
CC(Sc1n[nH]c(-c2cccs2)n1)C(=O)N1CCCC1 (stereo unspecified) | inactive | –
O=C1/C(=C/c2ccccc2O)SC(=S)N1Cc1cccnc1 | inconclusive: 29.1 µM [activator, single point] | –
O=C(/C=C/c1ccccc1)NC(NC(=S)Nc1cccc(Cl)c1)C(Cl)(Cl)Cl (stereo unspecified) | inconclusive: 20.6 µM [activator, single point] | –
CC(C)CSc1nc2ccccc2[nH]1 | inconclusive: 29.1 µM [activator, single point] | –
Cc1ccc(C=NNc2nc3c([nH]2)c(=O)n(C)c(=O)n3C)cc1 | inconclusive: 29.1 µM [activator, single point] | –
COc1cccc(CCNS(=O)(=O)CCNC(=O)c2cccc(OC)c2)c1 | inactive | –
COc1cc(/C=N/NC(=S)NCC2CCCO2)cc(OC)c1OC (stereo unspecified) | inactive | –
CCOc1cc(C)ccc1OCc1nnc(SCC(=O)c2cccc([N+](=O)[O-])c2)n1C | inconclusive: 4.11 µM [activator, single point] | –
CC1CC1C(=O)Nc1ccc(-c2ccccc2)cc1 (stereo unspecified) | inconclusive: 18.4 µM [activator, partial curve, poor fit] | –

Pulled one by one from above:
SMILES | Potency | re-replication activation
CCOc1ccc(NC(=O)c2ccc(Cn3nc(C)cc3C)o2)cc1 | inactive | –
N#CC1=C(N)NC(SCc2ccccc2)=C(C#N)C12CCCC2 | inconclusive: 18.4 µM [activator, partial curve, poor fit] | –

Further records:

SMILES | Potency | re-replication activation
CCc1nc2sc3ccccc3c(=O)c2c(=O)n1Cc1ccc(OC)cc1 | inconclusive: 5.8 µM [activator, full curve, poor fit] | –
CCCn1c(SC(C)C(=O)NCC2CCCO2)nc2cc(Cl)ccc2c1=O (stereo unspecified) | inconclusive: 8.2 µM [activator, partial curve, poor fit] | –
CCOc1ccccc1OCCCC(=O)N(C)CC(=O)Nc1cc(C)ccc1C | inconclusive: 32.6 µM [activator, partial curve, poor fit] | –
Cn1cc(/C=C/c2cc[n+](C)cc2)c2cc(F)ccc21 | inconclusive: 1.03 µM [activator, full curve] | –
O=C(NN=C1CCCC1)c1cccc(O)c1 | inconclusive: 1.84 µM [activator, partial curve] | –
CC(C)CCN1CCN(Cc2ccon2)CC1CCO (stereo unspecified) | inconclusive: 1.16 µM [activator, single point] | –
COC(=O)C/C=C/[C@@H](C)[C@@H](/C=N/O[C@@H](C)c1cn([C@H](CO)Cc2ccccc2)nn1)NS(=O)(=O)c1ccc(C)cc1 | inconclusive: 29.1 µM [activator, single point] | –
O=C1N/C(=C/c2ccc(N3CCOCC3)o2)C(=O)N1c1ccccc1 | active: 8.2 µM | –
O=C1CC(=C2c3ccccc3-c3ccccc32)C(=O)N1CCCCN1CCN(c2ccccc2)CC1 | inconclusive: 11.6 µM [activator, partial curve, poor fit] | –
CCOC(=O)C1(CCOc2ccccc2)CCN(Cc2ccc(OC)c(COC)c2)CC1 | inconclusive: 29.1 µM [activator, single point] | –
Cc1cccc(C(=O)OC(C)C(=O)N2CCc3ccccc3C2)c1C (stereo unspecified) | inactive | –
O=c1[nH]nc(Cc2ccc([N+](=O)[O-])cc2)c2ccccc12 | inactive | –
Cc1nc2c3cc(F)ccc3n(CCN3CCCCC3)c2s1 | inconclusive: 23.1 µM [activator, single point] | –
COc1ccc(C(=O)OCCN2C(=O)c3ccccc3C2=O)cc1OC | inconclusive: 29.1 µM [activator, single point] | –
CCOC(=O)N/N=C1\CC(C)CC(C)(C)C1 (stereo unspecified) | inactive | –
CCC(C)(C(=O)NC1CCCC1)N(C(=O)CNC(=O)c1ccccc1)c1c(C)n(C)n(-c2ccccc2)c1=O (stereo unspecified) | inconclusive: 14.6 µM [activator, partial curve, poor fit] | –
O=C(NCCC1=CCCCC1)c1ccc(-n2cncn2)cc1 | inconclusive: 6.51 µM [activator, full curve] | –
O=C(C1=C(O)C(=O)N(CCN2CCOCC2)C1c1ccc(F)cc1)c1cc2ccccc2o1 (stereo unspecified) | – | inconclusive: -29.9% [activator]
Cc1ccc(COc2ccsc2C(=O)O)cc1 | inactive | –
COc1ccc(CNC(=O)Nc2ccc(C)cc2C)cc1 | inactive | –
CC/C(=N/NC(=O)c1ccccc1O)c1c(C)[nH]n(-c2ccccc2)c1=O | active: 23.1 µM | –
Cc1cccc(OCC(=O)NC(=S)Nc2ccccc2N2CCOCC2)c1C | inactive | –
O=C(NCCCN1CCCC1=O)c1cccc(Oc2ccccc2)c1 | inconclusive: 18.4 µM [activator, single point] | –
O=C(CSc1ccc(F)cc1)Nc1ccc2c(c1)C(=O)NC2=O | inactive | –

Reprinted from above, two compounds:
SMILES | Potency | re-replication activation
CC(Sc1n[nH]c(-c2cccs2)n1)C(=O)N1CCCC1 (stereo unspecified) | inactive | –
O=C1/C(=C/c2ccccc2O)SC(=S)N1Cc1cccnc1 | inconclusive: 29.1 µM [activator, single point] | –

Carrying on:

SMILES | Potency | re-replication activation
O=[N+]([O-])c1cncn1CCN1CCOCC1 | inactive | –
O=C(NCC1([N+](=O)[O-])CN(C(=O)c2ccccc2)CN(C(=O)c2ccccc2)C1)c1ccccc1 | inactive | –
CN(CC(=O)Nc1cccc(F)c1)C(=O)C1CCC(C(=O)N(C)CC(=O)Nc2cccc(F)c2)CC1 (stereo unspecified) | inactive | –
Cc1cc(=O)c2c([nH]1)c(C)cc1[nH]c(C)c(C)c12 | active: 9.2 µM | –
COc1ccc(S(=O)(=O)N2CCOC23CCN(S(=O)(=O)c2ccc(C)cc2)CC3)cc1 | inconclusive: 14.6 µM [activator, partial curve, poor fit] | –
CCN(CC)c1ccc(/C=N/NC(=S)NCc2ccc(OC)cc2)cc1 | inconclusive: 16.4 µM [activator, single point] | –
CSc1ncc(-c2ccc(Cl)cc2)[nH]1 | inconclusive: 16.4 µM [activator, single point] | –
Cc1ccc(C(=O)N2CCN(c3cccc(Cl)c3)CC2)cc1C | active: 11.6 µM | –
OCC[C@@H]1C[C@H](O)[C@@H](O)[C@]2(CCCO2)O1 | inactive | –
CO/N=C/C(C#N)c1ncc(C(F)(F)F)cc1Cl (stereo unspecified) | inconclusive: 29.1 µM [activator, single point] | –
CNC(=O)[C@H](C)[C@@H]1C[C@@]1(C)[C@@H](NC(=O)OCc1ccccc1)c1ccccc1 | inconclusive: 0.184 µM [activator, full curve, poor fit] | –
CC1CCc2ccccc2N1CC(=O)Nc1cccc(S(=O)(=O)N2CCCC2)c1 (stereo unspecified) | inconclusive: 4.61 µM [activator, partial curve, poor fit] | –
CCOC(=O)c1ccc(NC(=O)CCc2nnc3ccc(N4CCCC4)nn23)cc1 | inactive | –
CCOC(=O)N1CCN(c2nc(-c3ccccc3)c3ccccc3n2)CC1 | active: 16.4 µM | –
CCOc1ccc(C2=Nn3c(CC)nnc3SC2)cc1 | inactive | –
CCC(C(=O)NC1CCCC1)N(Cc1ccco1)C(=O)CNS(=O)(=O)c1ccccc1 (stereo unspecified) | inactive | –
O=C(NCc1ccc(OC(F)(F)F)cc1)c1ccc2c(c1)S(=O)(=O)c1ccccc1C2=O | inactive | –
Cc1ccc2nc(Cl)c(/C=N/NC(=O)[C@H]3C[C@@H]3c3ccccc3)cc2c1 | inconclusive: 8.2 µM [activator, partial curve, poor fit] | –
Cc1ccc(NS(=O)(=O)c2cccc(C(=O)NC3CCN(Cc4ccccc4)CC3)c2)cc1 | inactive | –
CCc1ccc2[nH]c(=O)c(CN(Cc3ccc(OC)cc3)Cc3nnnn3CCOC)cc2c1 | inconclusive: 20.6 µM [activator, single point] | –
CCOC(=O)c1c2c(n(C)c1C)C(=O)C(=O)c1ccc(Br)cc1-2 | active: 2.59 µM | –
CCOC(=O)c1c(NC(=S)N2CCN(C)CC2)sc2c1CCN(C(=O)OCC)C2 | inconclusive: 29.1 µM [activator, single point] | –
C[C@H](NC(=O)c1nc[nH]c1C(=O)N[C@@H](CCCCNC(=O)OC(C)(C)C)C(=O)OC(C)(C)C)c1ccccc1 | inconclusive: 29.1 µM [activator, partial curve, poor fit] | –
